Source: PubChem BioAssay AID1224830 (NIAID, 2016)
This is a random part of about 18,000 reagents. Over the whole deposit, about 2,900 (16%) got an active call. 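Calls are made per well; low scores hint the gene aids the LPS response, high scores that it dampens it.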 Repeated entries: four replicate wells of each siRNA pool. Reagent sequences are not shown.

Aim: 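Host factors that control LPS-induced TNF expression in human macrophages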 (primary screen)
Cell system: human THP-1 monocytic leukaemia cells, TNF dual-luciferase reporter clone, PMA-differentiated to macrophage-like cells
Reagent: siRNA pool against human genes, 50 nM
Timing: LPS for 4 h, given about 3 days after siRNA transfection
Conditions: bacterial LPS (TLR4 ligand), 10 ng/ml
Read-out: 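Ratio of firefly to renilla light, scaled to the plate median and expressed as a robust z-score per replicate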
Scale: TNF reporter robust z-score: higher = stronger TNF reporter response to LPS
Call rule: 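Each well counts as active if its z-score is over 2.8 or under -1.5; controls are left without a call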

gene	TNF reporter robust z-score	call
IFNGR2 (interferon gamma receptor 2)	0.89	inactive
IFNGR2 (interferon gamma receptor 2)	1.63	inactive
IFNGR2 (interferon gamma receptor 2)	1	inactive
IFNGR2 (interferon gamma receptor 2)	2.05	inactive
MED18 (mediator complex subunit 18)	-0.76	inactive
MED18 (mediator complex subunit 18)	0.61	inactive
MED18 (mediator complex subunit 18)	0.26	inactive
MED18 (mediator complex subunit 18)	-0.01	inactive
SCO1 (synthesis of cytochrome C oxidase 1)	-0.83	inactive
SCO1 (synthesis of cytochrome C oxidase 1)	-0.23	inactive
SCO1 (synthesis of cytochrome C oxidase 1)	-0.17	inactive
SCO1 (synthesis of cytochrome C oxidase 1)	-0.55	inactive
ITLN2 (intelectin 2)	0.3	inactive
ITLN2 (intelectin 2)	1.06	inactive
ITLN2 (intelectin 2)	-0.63	inactive
ITLN2 (intelectin 2)	-1.57	active
FAM171B (family with sequence similarity 171 member B)	-0.61	inactive
FAM171B (family with sequence similarity 171 member B)	-0.62	inactive
FAM171B (family with sequence similarity 171 member B)	-0.25	inactive
FAM171B (family with sequence similarity 171 member B)	3.22	active
POLR3A (RNA polymerase III subunit A)	-1.05	inactive
POLR3A (RNA polymerase III subunit A)	-0.4	inactive
POLR3A (RNA polymerase III subunit A)	1.01	inactive
POLR3A (RNA polymerase III subunit A)	1.53	inactive
TDRD3 (tudor domain containing 3)	-0.4	inactive
TDRD3 (tudor domain containing 3)	-0.05	inactive
TDRD3 (tudor domain containing 3)	-0.15	inactive
TDRD3 (tudor domain containing 3)	-1.34	inactive
ZNF230 (zinc finger protein 230)	-0.93	inactive
ZNF230 (zinc finger protein 230)	-0.56	inactive
ZNF230 (zinc finger protein 230)	-0.38	inactive
ZNF230 (zinc finger protein 230)	-0.63	inactive
PLAG1 (PLAG1 zinc finger)	-1.44	inactive
PLAG1 (PLAG1 zinc finger)	-1.24	inactive
PLAG1 (PLAG1 zinc finger)	-0.79	inactive
PLAG1 (PLAG1 zinc finger)	-0.82	inactive
OAS3 (2'-5'-oligoadenylate synthetase 3)	-0.15	inactive
OAS3 (2'-5'-oligoadenylate synthetase 3)	0.73	inactive
OAS3 (2'-5'-oligoadenylate synthetase 3)	0.53	inactive
OAS3 (2'-5'-oligoadenylate synthetase 3)	-0.41	inactive

Part of the list above in another layout.
{"gene":"ITLN2 (intelectin 2)","TNF reporter robust z-score":1.06,"call":"inactive"}
{"gene":"ITLN2 (intelectin 2)","TNF reporter robust z-score":-0.63,"call":"inactive"}
{"gene":"ITLN2 (intelectin 2)","TNF reporter robust z-score":-1.57,"call":"active"}
{"gene":"FAM171B (family with sequence similarity 171 member B)","TNF reporter robust z-score":-0.61,"call":"inactive"}
{"gene":"FAM171B (family with sequence similarity 171 member B)","TNF reporter robust z-score":-0.62,"call":"inactive"}
{"gene":"FAM171B (family with sequence similarity 171 member B)","TNF reporter robust z-score":-0.25,"call":"inactive"}
{"gene":"FAM171B (family with sequence similarity 171 member B)","TNF reporter robust z-score":3.22,"call":"active"}
{"gene":"POLR3A (RNA polymerase III subunit A)","TNF reporter robust z-score":-1.05,"call":"inactive"}
{"gene":"POLR3A (RNA polymerase III subunit A)","TNF reporter robust z-score":-0.4,"call":"inactive"}
{"gene":"POLR3A (RNA polymerase III subunit A)","TNF reporter robust z-score":1.01,"call":"inactive"}
{"gene":"POLR3A (RNA polymerase III subunit A)","TNF reporter robust z-score":1.53,"call":"inactive"}

Further records follow:
gene	TNF reporter robust z-score	call
CLYBL (citramalyl-CoA lyase)	0.08	inactive
CLYBL (citramalyl-CoA lyase)	0.24	inactive
CLYBL (citramalyl-CoA lyase)	-0.55	inactive
CLYBL (citramalyl-CoA lyase)	-0.59	inactive
XKR7 (XK related 7)	-0.99	inactive
XKR7 (XK related 7)	-0.1	inactive
XKR7 (XK related 7)	-0.61	inactive
XKR7 (XK related 7)	-0.35	inactive
GINS3 (GINS complex subunit 3)	-0.62	inactive
GINS3 (GINS complex subunit 3)	0.41	inactive
GINS3 (GINS complex subunit 3)	-0.02	inactive
GINS3 (GINS complex subunit 3)	-0.61	inactive
HSD17B8 (hydroxysteroid 17-beta dehydrogenase 8)	-0.77	inactive
HSD17B8 (hydroxysteroid 17-beta dehydrogenase 8)	-1.15	inactive
HSD17B8 (hydroxysteroid 17-beta dehydrogenase 8)	-0.01	inactive
HSD17B8 (hydroxysteroid 17-beta dehydrogenase 8)	-0.82	inactive
CDCA5 (cell division cycle associated 5)	0.13	inactive
CDCA5 (cell division cycle associated 5)	1.72	inactive
CDCA5 (cell division cycle associated 5)	1.2	inactive
CDCA5 (cell division cycle associated 5)	1.67	inactive
KRI1 (KRI1 homolog)	-0.17	inactive
KRI1 (KRI1 homolog)	-0.12	inactive
KRI1 (KRI1 homolog)	0.43	inactive
KRI1 (KRI1 homolog)	0.58	inactive
PITPNM1 (phosphatidylinositol transfer protein membrane associated 1)	0.45	inactive
PITPNM1 (phosphatidylinositol transfer protein membrane associated 1)	0.89	inactive
PITPNM1 (phosphatidylinositol transfer protein membrane associated 1)	0.51	inactive
PITPNM1 (phosphatidylinositol transfer protein membrane associated 1)	3.83	active
MCMDC2 (minichromosome maintenance domain containing 2)	0.06	inactive
MCMDC2 (minichromosome maintenance domain containing 2)	2.96	active
MCMDC2 (minichromosome maintenance domain containing 2)	-0.37	inactive
MCMDC2 (minichromosome maintenance domain containing 2)	0.74	inactive
BAX (BCL2 associated X, apoptosis regulator)	-1.18	inactive
BAX (BCL2 associated X, apoptosis regulator)	-0.69	inactive
BAX (BCL2 associated X, apoptosis regulator)	-0.34	inactive
BAX (BCL2 associated X, apoptosis regulator)	0.87	inactive
